These are yes or no findings as the source states them, for the method shown. For part of these data: Binding can be weak; no strength is given.

Experiment [1] has as its target fXI A1 domain fused to tissue plasminogen activator. In words: immunoblot of fXI apple domain-tPA fusion proteins with 14E11.
The target of experiment [2] is fXI A3 domain fused to tissue plasminogen activator. The experiment is described as above.
Experiment [3] addresses fXI A4 domain fused to tissue plasminogen activator. Described as above.
In experiment [4] the target is fXI A2 domain fused to tissue plasminogen activator. In words: immunoblot of fXI apple domain-tPA fusion proteins with 14E11 (FIG. 10B). A general note: Immunoblotting shows a protein as a band on a membrane.
The next experiment addresses anteater fXI (anteater). In words: immunoprecipitation from serum with 14E11 beads, western blot with biotinylated 14E11.
Experiment [5] addresses African elephant fXI (African elephant). In words: immunoprecipitation from plasma with 14E11 beads, western blot with biotinylated 14E11.
The next experiment deals with baboon fXI (baboon). The experiment is described as above.
Another experiment addresses cat fXI (cat). The description is as above.
A further experiment addresses dog fXI (dog). The description is as above.
In a further experiment the target is horse fXI (horse). The experiment is described as above.
A further experiment addresses llama fXI (llama). The experiment is described as above.
The target in the next experiment is pig fXI (pig). The description is as above.
Another experiment has as its target rabbit fXI (rabbit). The description is as above.
For another experiment, the target named is raccoon fXI (raccoon). The experiment is described as above.
A further experiment addresses tiger fXI (tiger). The description is as above.

B1: monoclonal antibody 14E11 (antibody, V domains shown)
VH: QVQLEESGPGLVAPSQSLSITCTVSGFSLTGYGIYWVRQPPGKGLEWLGMIWGDGRTDYNSALKSRLSISKDNSKSQVFLKMNSLQTDDTARYYCARDYYGSKDYWGQGTTLTVSS
VL: DIVMTQSHKFMSTSVGDRVSITCKASQDVSTAVAWYQQKPGQSPKLLIYLTSYRNTGVPDRFTGSGSGTDFTFTISSVQAEDLAVYYCQQHYKTPYSFGGGTKLERLR
notes: also called anti-murine fXI IgG 14E11; anti-fXI IgG 14E11
As for B1, the binding result is listed as “no binding” in [1]; “no binding” in [2]; “no binding” in experiment [3]; “binds” in [4]; “binds” with anteater fXI (anteater); “binds” in experiment [5]. For the same molecule, the binding entry with baboon fXI (baboon), in the experiment with cat fXI (cat), with dog fXI (dog), in the experiment with horse fXI (horse), with llama fXI (llama) and with pig fXI (pig) was “binds” in each case. In addition, the binding result in the experiment with rabbit fXI (rabbit), in the experiment with raccoon fXI (raccoon) and in the experiment with tiger fXI (tiger) was “binds” each time.

The values above are taken from patent US20110250207A1 (OREGON HEALTH AND SCIENCE UNIVERSITY, published 2011).
